Experimental data reported in PubChem BioAssay AID493014 (National Center for Advancing Translational Sciences (NCATS), 2011).
Screen size: about 340,000 compounds; about 170 (0.05%) were called active. The shares of active, inactive and inconclusive entries below differ from those in the screen. Calls follow the shape of the dose curve; as a rule, active = well fitted inhibition curve with a large enough effect in the signal ratio, with a control signal flat (not every such curve was filed as active); inconclusive = small, poorly fitted or top-dose-only effect, or effect the other way, or a change in a side signal; inactive = flat fitted curve, though single readings scatter; the % refers to the signal ratio. Where the call is inconclusive, the potency comes from a doubtful curve fit.

Test: qHTS Assay to Find Inhibitors of Chronic Active B-Cell Receptor Signaling;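 as to activity change, negative = inhibition: plate controls were basal doxycycline-induced cells for no effect and cells given 10 µM MG132 for full effect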
Details: ABC-DLBCL IkBa-CBG/CBR reporter, luminescence ratio (green luciferase fused to IkBa over red control in TMD8 lymphoma cells), 4 h; activity change, negative = inhibition: at 46.1 µM (top of the series) unless noted
Summary of the method: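 Compounds up to 46 uM were incubated four hours with TMD8 cells whose green CBG68 luciferase is fused to IkappaBalpha; red CBR luminescence normalised the signal, and concentration-effect curves were fitted to fusion, red and ratio data.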
Potency is read from the fitted curve at half-maximal effect.

| Structure (SMILES) | activity change, negative = inhibition | Potency |
| --- | --- | --- |
| O=C(NCCSCc1ccccc1)c1ccccc1 | inconclusive: -23.4% | – |
| CN(CC(=O)Nc1ccccc1C(=O)N1CCCC1)S(=O)(=O)c1ccc(Cl)cc1 | inconclusive: -0.106% | – |
| Cc1ccc(C(=O)Nc2ccc3c(c2)OCO3)cc1 | – | inconclusive: 20.6 µM [falling, single point] |
| COC(=O)Cc1ccc(NC(=S)NCC(C)C)cc1 | inconclusive: 9.74% | – |
| COc1ccc(C2CC(c3cccs3)=NN2C(=O)CSc2nc(=O)n3cc(C)ccc3n2)cc1 (configuration not stated) | inactive: 3.03% | – |
| CCCc1cc(=O)[nH]c(SCC(=O)Nc2ccc3c(c2)CCC3)n1 | inconclusive: 17.9% | – |
| COc1ccc(N2C(=O)CSC23CCC(C(C)(C)C)CC3)cc1 (configuration not stated) | inconclusive: -2.92% | – |
| Cc1ccc(-c2nnc(N3CCN(S(C)(=O)=O)CC3)c3ccccc23)cc1 | inactive: 1.18% | – |
| Cn1ccnc1SCC(=O)Nc1cccc(C(F)(F)F)c1 | inconclusive: 10.9% | – |
| CCN1/C(=C/C=C/c2oc3ccc(-c4ccccc4)cc3[n+]2CC)Oc2ccc(-c3ccccc3)cc21 | – | inconclusive: 35.5 µM [rising, single point] |
| COC(=O)c1c(NC(=O)/C=C/C(=O)O)sc(C)c1-c1ccc(C(C)C)cc1 | inconclusive: -1.84% | – |
| COc1cccc(/C=N/NC(=O)c2c(C)nc3ccc(Br)cn23)c1O | – | inconclusive: 11.2 µM [falling, partial curve] |
| Cc1ccc(OCC(=O)OCc2c(C)noc2C)cc1C | – | inconclusive: 32.6 µM [falling, single point] |
| CCn1c(SCC(=O)NC2CCCCC2)nnc1-c1cc2cccc(OC)c2o1 | inconclusive: 9.19% | – |
| O=C(NC(=S)N1CCN(C/C=C/c2ccccc2)CC1)c1ccc(Cl)nc1 | inactive: 13.5% | – |
| CN(C)c1ccc(/C=C/C(=O)c2ccccc2O)cc1 | – | inconclusive: 4.47 µM [falling, full curve] |
| Cc1ccc(NC(=O)CSc2ncc(S(=O)(=O)c3ccccc3)c(=O)[nH]2)cc1C | inconclusive: 7.88% | – |
| C=CC[C@H](CC(=O)OC(C)(C)C)C(=O)OC[C@@H]1CCCN1C(=O)[C@@H](CC=C)CC(=O)N[C@H](CO)Cc1ccccc1 | inactive: 2.68% | – |
| Cc1nnc(SCC(=O)NC(=O)Nc2ccc3c(c2)OCCO3)n1N | – | inconclusive: 11.2 µM [falling, single point] |
| COc1ccc(NC(=O)c2ccco2)cc1NC(=O)c1ccccc1[N+](=O)[O-] | – | inconclusive: 8.91 µM [falling, partial curve] |
| COc1cc(OC)cc(C(=O)NNC(=O)c2ccccn2)c1 | – | inconclusive: 20.6 µM [falling, single point] |
| COc1cccc(NC(=O)c2ccc(-c3ccc([N+](=O)[O-])cc3)o2)c1 | inconclusive: -2.01% | – |
| COC(=O)c1sc2nc3c(cc2c1N)CCCC3 | inconclusive: 14.2% | – |
| O=C(NC(=O)N1CCN(c2ccc(F)cc2)CC1)c1ccccc1 | inconclusive: 8.44% | – |
| CCCSc1nnc(-c2ccccc2NC(=O)CC)c(=O)[nH]1 | inconclusive: -5.01% | – |
| O=C(O)/C=C\C(=O)NNC(=O)c1cc(-c2ccccc2)n[nH]1 | – | inconclusive: 0.631 µM [falling, full curve, poor fit] |

| Structure (SMILES) | activity change, negative = inhibition | Potency |
| --- | --- | --- |
| O=C(O)/C=C/C(=O)Nc1ccc(OCc2ccccc2)cc1 | inconclusive: -2.49% | – |
| COc1cc(CCC(=O)Nc2ncc(C)s2)cc(OC)c1OC | inconclusive: -4.4% | – |
| COc1cccc(CN(C(=O)Cc2c[nH]c3ccccc23)C(C(=O)NC2CCCCC2)c2ccc(C)o2)c1 (configuration not stated) | inactive: -15.6% | – |
| CS(=O)(=O)N(CC(=O)Nc1ccc2c(c1)OCCO2)Cc1ccccc1 | inconclusive: -3.42% | – |
| O=C(COc1ccccc1)Nc1nnc(-c2ccco2)o1 | inconclusive: -23.2% | – |
| Oc1cccc(/C=N/NC(=S)Nc2cccnc2)c1O | – | inconclusive: 32.6 µM [falling, partial curve, poor fit] |
| CC(=O)Nc1ccc(NC(=O)C(C)OC(=O)c2ccc(OCc3c(C)noc3C)cc2)cc1 (configuration not stated) | – | inconclusive: 2.31 µM [falling, partial curve, poor fit] |
| CC(C)(C)C1CCc2c(sc(NC(=O)c3cccs3)c2C(N)=O)C1 (configuration not stated) | inconclusive: -18.8% | – |
| CN(C(=O)CSc1nc2cc(Cl)ccc2c(=O)n1Cc1ccco1)C1CCS(=O)(=O)C1 (configuration not stated) | inconclusive: 5.7% | – |
| Cc1cc2c(Nc3ccc(O)cc3)ncnc2s1 | – | inconclusive: 11.2 µM [falling, partial curve] |
| CC(=O)N1CCN(Cc2nc3cc(NC(=O)Nc4ccccc4)ccc3n2C)CC1 | inactive: 1.16% | – |
| O=C(c1ccc2ccccc2c1)c1c[nH]cc1-c1ccccc1 | inconclusive: 26.7% | – |
| O=C(Nc1ccc(N2CCOCC2)c(Cl)c1)c1cccnc1 | inactive: -7.36% | – |
| CCOC(=O)c1c(S(=O)(=O)N2CCCC(C(=O)Nc3cccc(CC)c3)C2)c(C)n(CC)c1C (configuration not stated) | inactive: -1.29% | – |
| CC1CCc2c(sc3ncnc(NS(=O)(=O)c4cccs4)c23)C1 (configuration not stated) | inactive: 10.3% | – |
| Cc1ccc(SCC(=O)OCC(=O)N(C)CC(=O)Nc2ccccc2Cl)cc1 | inconclusive: 3.42% | – |
| S=c1oc(-c2ccncc2)nn1CCc1ccncc1 | inconclusive: 7.06% | – |
| CC(=O)Nc1cccc(NC(=O)C(=O)NCC(c2ccco2)N2CCc3ccccc32)c1 (configuration not stated) | inconclusive: 0.505% | – |
| CC(C)Oc1ccc(Cn2c(-c3ccco3)n[nH]c2=S)cc1 | inactive: -0.0357% | – |
| COC(=O)c1[nH]c2ccc(C)cc2c1NC(=O)CN1CCN(Cc2ccccc2)CC1 | inconclusive: -13.8% | – |
| CCOc1ccccc1NC(=O)Cn1c(=O)oc2ccccc21 | – | inconclusive: 3.55 µM [falling, single point] |
| O=C1c2ccccc2NC(c2ccc(F)cc2)N1Cc1ccco1 (configuration not stated) | inactive: -1.52% | – |
| O=C(NNC(=O)c1ccccc1F)c1ccco1 | inconclusive: -15.5% | – |
| CCN1CCCC1CNC(=O)c1ccc2c(c1)NC(=O)/C(=C\c1ccc(C)cc1)S2 (configuration not stated) | inconclusive: 0.965% | – |
| Cc1cc(Sc2nc(N(C)C)nc(N(C)C)n2)nc(Cl)n1 | inconclusive: 3.77% | – |
| O=C(COC(=O)COc1ccc(Cl)cc1Br)NCCC1=CCCCC1 | inconclusive: -0.246% | – |
